PubChem BioAssay AID1159596 | NIAID, 2016

- Screen: 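Knock-down of 126 toll-like receptor signalling parts, six siRNAs each, on a TNF reporter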 (primary screen)
- System: human THP1 B5 monocytic reporter cells made macrophage-like with PMA
- Reagents: single siRNA against human genes
- Duration: assayed 48 to 72 hours after siRNA transfection; peptidoglycan stimulation lasted 4 hours
- Treatment: Staphylococcus aureus peptidoglycan for 4 hours; dose not given
- Detection: 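TNF-alpha promoter firefly/renilla luciferase ratio after 4 h s. aureus peptidoglycan; plate median/MAD scaled, robust z versus negative control wells, mean of replicates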
- Scale: TNF reporter z-score: higher = stronger TNF promoter reporter response to peptidoglycan
- Active means: In these data the active calls have TNF reporter z-score, replicate mean at about -1.5 or lower, or at about 1.5 or higher
- Calls: active = reporter shifted beyond cut (either direction); inactive = reporter near control level
Here is one part, drawn at random, of 756 deposited reagents. 143 of all reagents (19%) were called active. 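Active means the reporter moved past about ±1.5 in either direction; scores are per single siRNA, not per gene; peptidoglycan dose not given.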 Reagents against one gene are numbered here. No sequences are given here. Not given: the amount of reagent.

EGR2 (early growth response 2) #1 | TNF reporter z-score, replicate mean = -0.953; activity call = inactive
EGR2 (early growth response 2) #2 | TNF reporter z-score, replicate mean = 0.218; activity call = inactive
EGR2 (early growth response 2) #3 | TNF reporter z-score, replicate mean = -0.783; activity call = inactive
EGR2 (early growth response 2) #4 | TNF reporter z-score, replicate mean = -0.763; activity call = inactive
EGR2 (early growth response 2) #5 | TNF reporter z-score, replicate mean = -0.264; activity call = inactive
EGR2 (early growth response 2) #6 | TNF reporter z-score, replicate mean = -1.61; activity call = active
RIPK1 (receptor interacting serine/threonine kinase 1) #1 | TNF reporter z-score, replicate mean = -0.559; activity call = inactive
RIPK1 (receptor interacting serine/threonine kinase 1) #2 | TNF reporter z-score, replicate mean = 0.00909; activity call = inactive
RIPK1 (receptor interacting serine/threonine kinase 1) #3 | TNF reporter z-score, replicate mean = 0.446; activity call = inactive
RIPK1 (receptor interacting serine/threonine kinase 1) #4 | TNF reporter z-score, replicate mean = -1.09; activity call = inactive
RIPK1 (receptor interacting serine/threonine kinase 1) #5 | TNF reporter z-score, replicate mean = -0.287; activity call = inactive
RIPK1 (receptor interacting serine/threonine kinase 1) #6 | TNF reporter z-score, replicate mean = -0.389; activity call = inactive

Reagents above with an active call:
EGR2 (early growth response 2) #6 | TNF reporter z-score, replicate mean = -1.61; activity call = active
